Reference: PubChem BioAssay AID504834 (National Center for Advancing Translational Sciences (NCATS), 2011)
In all, about 320,000 compounds went through this assay and about 22,000 (6.9%) were called active. The shares of active, inactive and inconclusive entries below differ from those in the screen. Calls follow the shape of the dose curve; as a rule, active = well fitted inhibition curve with a large enough effect; inconclusive = small, poorly fitted or top-dose-only effect, or another doubt; inactive = no such curve, though single readings can be large or run the other way. A potency beside an inconclusive call is a rough fit, not a confirmed value.

Experiment: Primary qHTS for delayed death inhibitors of the malarial parasite plastid, 96 hour incubation
Settings: P. falciparum luciferase reporter growth; series mostly up to 28.7 µM
In short: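 Plates of compound plus infected erythrocytes (2% hematocrit, 0.05% parasitemia final) incubate 96 hours, 37 C, 5% CO2. Detection reagent added; reduced luminescence from the parasites' luciferase reporter flags inhibition.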
% is scaled to controls: 0 for no effect and ±100 for the full control effect; potency is read from the fitted curve at half-maximal effect.

| SMILES | Potency | activity change, negative = inhibition |
| --- | --- | --- |
| CCOc1ccc(OCc2ccc(C(=O)NC(C)(C)C)o2)cc1 | inconclusive: 18.5 µM [inhibitor, single point] |  |
| COc1cccc(C2CNC3(CCCC(C)C3)c3[nH]c4ccccc4c32)c1OC (centres undefined) | active: 9.28 µM |  |
| C=C1C(C(=O)N2CCOCC2)C1C(=O)N1CCOCC1 (centres undefined) | inconclusive: 18.5 µM [inhibitor, partial curve, poor fit] |  |
| Cc1ccc(C)c(N2CCN(S(=O)(=O)c3cc4c(cc3Cl)NC(=O)CO4)CC2)c1 | inconclusive: 11.7 µM [inhibitor, single point] |  |
| COc1ccc(C2CC(c3ccccc3)=NN2C(=O)CN2CCN(Cc3ccccc3)CC2)cc1 (centres undefined) | inconclusive: 18.5 µM [inhibitor, single point] |  |
| CCOc1ccc(-c2nnc(N3CCCCC3)c3ccccc23)cc1 | inconclusive: 9.28 µM [inhibitor, single point] |  |
| COC(=O)c1ccc(Cl)c(-c2ccc(/C=N/NC(=O)Nc3ccccc3)o2)c1 | inconclusive: 9.28 µM [inhibitor, partial curve, poor fit] |  |
| O=[N+]([O-])c1cnn2cc(Br)cnc12 | inconclusive: 11.7 µM [inhibitor, partial curve] |  |
| COc1ccc(CCN(C)C(=O)c2cc(S(=O)(=O)NCc3ccccc3)ccc2C)cc1OC | inconclusive: 18.5 µM [inhibitor, partial curve, poor fit] |  |
| CC(C)C(C)(C#N)NC(=O)CSc1nc2scc(-c3ccco3)c2c(=O)n1-c1ccccc1 (centres undefined) | inconclusive: 10.4 µM [inhibitor, partial curve, poor fit] |  |
| COc1ccc(NC(=O)/C(=C\c2cccs2)NC(=O)c2ccco2)cc1 | inconclusive: 4.15 µM [inhibitor, partial curve, poor fit] |  |
| COc1ccccc1C(CNC(=S)NCc1ccccc1)N1CCCC1 (centres undefined) | inconclusive: 16.5 µM [inhibitor, partial curve, poor fit] |  |
| CCCC(C(=O)NCc1ccco1)N(C(=O)CNS(=O)(=O)c1ccccc1)c1ccc(OC)cc1 (centres undefined) | inconclusive: 11.7 µM [inhibitor, single point] |  |
| COc1ccc(C2C(C(=O)O)CC(=O)N2c2ccc(OC)cc2)cc1 (centres undefined) | inconclusive: 2.94 µM [inhibitor, full curve, poor fit] |  |
| COc1cccc(NC(=O)[C@@H]2CCCN2C(=O)[C@@H]2Cc3ccccc3CN2C(=O)OC(C)(C)C)c1 | inconclusive: 18.5 µM [inhibitor, single point] |  |
| COc1ccc(S(=O)(=O)N(C)c2ccc(C(=O)NCC3CCCO3)cc2)cc1OC (centres undefined) | inconclusive: 18.5 µM [inhibitor, partial curve, poor fit] |  |
| C=CCNCCCOc1ccc(Cl)cc1C(C)(C)C | inconclusive: 13.1 µM [inhibitor, single point] |  |
| CC(=O)Nc1ccc(-c2cn3ccsc3n2)cc1 | active: 10.4 µM |  |
| COC(=O)NN=C1CCC(c2ccccc2)CC1 (centres undefined) | inconclusive: 18.5 µM [inhibitor, single point] |  |
| CCN(C(=O)COC(=O)c1cc(-c2ccccc2)nc2c1c(C)nn2-c1ccc(C)cc1)C1CCS(=O)(=O)C1 (centres undefined) | inactive |  |
| COc1cccc(CNc2cc(C)ccn2)c1O | inconclusive: 18.5 µM [inhibitor, single point] |  |
| Cc1ccc(N(CC(=O)NC2CCCC2)C(=O)CCC(=O)Nc2nccs2)cc1C | inconclusive: 5.22 µM [inhibitor, partial curve, poor fit] |  |

An excerpt from above in order of count of non-hydrogen atoms, low to high:

| SMILES | Potency | activity change, negative = inhibition |
| --- | --- | --- |
| CC(=O)Nc1ccc(-c2cn3ccsc3n2)cc1 | active: 10.4 µM |  |
| CCOc1ccc(-c2nnc(N3CCCCC3)c3ccccc23)cc1 | inconclusive: 9.28 µM [inhibitor, single point] |  |
| Cc1ccc(N(CC(=O)NC2CCCC2)C(=O)CCC(=O)Nc2nccs2)cc1C | inconclusive: 5.22 µM [inhibitor, partial curve, poor fit] |  |

Additional entries follow:

| SMILES | Potency | activity change, negative = inhibition |
| --- | --- | --- |
| NC(=O)NC(c1ccccc1)c1cccc2ccccc12 (centres undefined) | inactive |  |
| CCCCOCCCNC(=O)N[C@@H](CC(C)C)C(=O)O | inconclusive: 8.28 µM [inhibitor, partial curve, poor fit] |  |
| Cc1cccc(-n2ccc(=O)c(C(=O)Nc3ccc(S(=O)(=O)Nc4nccs4)cc3)n2)c1 | inconclusive: 14.7 µM [inhibitor, single point] |  |
| CC(NC(=S)Nc1ccc(F)cc1)C(c1cccs1)N1CCOCC1 (centres undefined) | inconclusive: 9.28 µM [inhibitor, partial curve, poor fit] |  |
| Cc1cccc(C)c1Nc1nnc(SCC(=O)c2ccc3c(c2)NC(=O)CO3)s1 | inconclusive: 18.5 µM [inhibitor, single point] |  |
| CC1(C)Cc2c(sc3c2c(=N)n(Cc2ccco2)c(=O)n3Cc2ccc(Cl)cc2)CO1 | active: 10.4 µM |  |
| CC1CN(c2ccc([N+](=O)[O-])cc2C(=O)N2CCOCC2)CC(C)N1 (centres undefined) | inconclusive: 11.7 µM [inhibitor, single point] |  |
| CC(Sc1ncc(C(F)(F)F)cc1Cl)C(=O)NC(N)=O (centres undefined) | inconclusive: 11.7 µM [inhibitor, single point] |  |
| Cc1ccccc1Nc1ncnc2c1cnn2C | inconclusive: 18.5 µM [inhibitor, single point] |  |
| Cc1cc(NC(=O)c2ccc(S(=O)(=O)N3CCCC3)cc2)nc2c1c(=O)oc1ccccc12 | inconclusive: 11.7 µM [inhibitor, single point] |  |
| CN(C)c1nc(OCCNC(=O)COc2ccccc2Cl)nc(N(C)C)n1 | inconclusive: 7.38 µM [inhibitor, partial curve, poor fit] |  |
| Cc1ccccc1NS(=O)(=O)c1ccc2[nH]cc(C(=O)N3CCCCC3)c(=O)c2c1 | inactive |  |
| O=C1CC(c2ccccc2)CC(=NCCO)/C1=C(\O)CCCN1C(=O)c2ccccc2C1=O (centres undefined) | inconclusive: 3.29 µM [inhibitor, single point] |  |
| CCCN(CCC)c1ncnc2nc[nH]c12 | inconclusive: 8.28 µM [inhibitor, single point] |  |
| COc1ccccc1C(=O)Nc1ccnn1C1CCN(C/C=C/c2ccccc2)CC1 | inconclusive: 1.17 µM [inhibitor, full curve, poor fit] |  |
| COc1ccc(CNC(=O)CSc2nnc(NC(=O)c3ccccc3F)s2)cc1 | inactive |  |
| O=C(Nc1ccc(Cl)cc1C(=O)c1ccccc1)c1ccccc1 | inactive |  |
| COc1ccc(CN(C)C(C)C(=O)Nc2ccc([N+](=O)[O-])cc2Cl)cc1OC (centres undefined) | active: 11.7 µM |  |
| COc1ccc(OC)c(C2CC(c3c(-c4ccccc4)c4cc(Cl)ccc4[nH]c3=O)=NN2S(C)(=O)=O)c1 (centres undefined) | active: 2.08 µM |  |
| Cc1ccc(C(=O)c2cnc3cc4c(cc3c2S(=O)(=O)c2ccccc2)OCCO4)cc1 | inconclusive: 16.5 µM [inhibitor, single point] |  |
| COc1cc2nc(C3CCC3)nc(N3CCN(c4ccccn4)CC3)c2cc1OC | inconclusive: 11.7 µM [inhibitor, single point] |  |
| CC1(C)C(=O)CC[C@@]2(C)[C@H]1CC[C@@]1(C)CC3=C(CC[C@@H]12)[C@@]1(C)CCC(=O)C(C)(C)[C@@H]1CC3 | inconclusive: 3.7 µM [inhibitor, single point] |  |

| SMILES | Potency | activity change, negative = inhibition |
| --- | --- | --- |
| O=C(O)CCC(=O)NNC(=O)c1ccc(Br)cc1 | inconclusive: 10.4 µM [inhibitor, partial curve, poor fit] |  |
| COc1ccc(S(=O)(=O)N2CCOC23CCN(S(=O)(=O)c2ccc(F)cc2)CC3)cc1 | inconclusive: 9.28 µM [inhibitor, single point] |  |
| COc1cccc(CN(C)C(=O)c2ccc(OCC(=O)N3CCOCC3)c(OC)c2)c1 | inactive |  |
| CN1CCC(=NNC(=O)CSc2ccc(Cl)cc2)CC1 | inactive |  |
| CCOC(=O)Cn1c2ccc(OC)cc2c2nc3ccccc3nc21 | inconclusive: 4.15 µM [inhibitor, partial curve, poor fit] |  |
| Cc1cc(NC(=O)CSc2nnc(C3CC3)n2N)c([N+](=O)[O-])cc1C | inactive |  |
| Cc1ccn2c(C(=O)N/N=C\c3cccs3)c(C)nc2c1 | inconclusive: 0.185 µM [inhibitor, partial curve, poor fit] |  |
| O=C(Nc1ccccc1)Nc1ccc(C(=O)N2CCCC2)cc1 | inactive |  |
| Cc1cc2nc(/C(C#N)=C\c3ccc(-c4ccccc4C(=O)O)o3)[nH]c2cc1C | inconclusive: 14.7 µM [inhibitor, single point] |  |
| CC(C)CNS(=O)(=O)c1ccc(CCC(=O)NCc2ccncc2)cc1 | inactive |  |
| O=C(Nc1ccc(S(=O)(=O)Nc2ncccn2)cc1)c1ccc2ncsc2c1 | inconclusive: 11.7 µM [inhibitor, partial curve, poor fit] |  |
| COc1cc2nc(C3CC3)n(NC(=O)c3ccc(F)cc3)c(=O)c2cc1OC | inconclusive: 10.4 µM [inhibitor, partial curve, poor fit] |  |
| Cc1cccc(CN2CCC(n3nccc3NC(=O)c3ccccc3C)CC2)n1 | inconclusive: 18.5 µM [inhibitor, single point] |  |
| CCOCC(=O)Nc1cc(S(=O)(=O)N2CCOCC2)ccc1N1CCCCC1 | inconclusive: 7.38 µM [inhibitor, partial curve, poor fit] |  |
| O=c1ccnc(SCCc2ccccc2)[nH]1 | inactive |  |
| Cc1nnc(Nc2ccc3c(c2)ncn3C)c2ccccc12 |  | inactive: -0.917% [at 5.75 µM] |
| O=C1CCCc2c1[nH]c1ccc(Cl)cc21 | inconclusive: 3.29 µM [inhibitor, full curve] |  |
| COc1ccc(OC)c(NC(=O)COc2ccc(S(=O)(=O)N3CCCC3)cc2)c1 | inconclusive: 13.1 µM [inhibitor, partial curve, poor fit] |  |
| CCc1noc(C)c1C(=O)Nc1cccc(S(=O)(=O)N2CCCCCC2)c1 | inactive |  |
| CC1(C)CC(=O)C(C2NCCc3ccccc32)=C(O)C1 (centres undefined) | inconclusive: 0.0033 µM [inhibitor, full curve, poor fit] |  |
